Among the data in publication PMC10681723 are binding values, retold here.

Chains of the proteins cited; added tags and fusions are not shown.
UniProt P32558: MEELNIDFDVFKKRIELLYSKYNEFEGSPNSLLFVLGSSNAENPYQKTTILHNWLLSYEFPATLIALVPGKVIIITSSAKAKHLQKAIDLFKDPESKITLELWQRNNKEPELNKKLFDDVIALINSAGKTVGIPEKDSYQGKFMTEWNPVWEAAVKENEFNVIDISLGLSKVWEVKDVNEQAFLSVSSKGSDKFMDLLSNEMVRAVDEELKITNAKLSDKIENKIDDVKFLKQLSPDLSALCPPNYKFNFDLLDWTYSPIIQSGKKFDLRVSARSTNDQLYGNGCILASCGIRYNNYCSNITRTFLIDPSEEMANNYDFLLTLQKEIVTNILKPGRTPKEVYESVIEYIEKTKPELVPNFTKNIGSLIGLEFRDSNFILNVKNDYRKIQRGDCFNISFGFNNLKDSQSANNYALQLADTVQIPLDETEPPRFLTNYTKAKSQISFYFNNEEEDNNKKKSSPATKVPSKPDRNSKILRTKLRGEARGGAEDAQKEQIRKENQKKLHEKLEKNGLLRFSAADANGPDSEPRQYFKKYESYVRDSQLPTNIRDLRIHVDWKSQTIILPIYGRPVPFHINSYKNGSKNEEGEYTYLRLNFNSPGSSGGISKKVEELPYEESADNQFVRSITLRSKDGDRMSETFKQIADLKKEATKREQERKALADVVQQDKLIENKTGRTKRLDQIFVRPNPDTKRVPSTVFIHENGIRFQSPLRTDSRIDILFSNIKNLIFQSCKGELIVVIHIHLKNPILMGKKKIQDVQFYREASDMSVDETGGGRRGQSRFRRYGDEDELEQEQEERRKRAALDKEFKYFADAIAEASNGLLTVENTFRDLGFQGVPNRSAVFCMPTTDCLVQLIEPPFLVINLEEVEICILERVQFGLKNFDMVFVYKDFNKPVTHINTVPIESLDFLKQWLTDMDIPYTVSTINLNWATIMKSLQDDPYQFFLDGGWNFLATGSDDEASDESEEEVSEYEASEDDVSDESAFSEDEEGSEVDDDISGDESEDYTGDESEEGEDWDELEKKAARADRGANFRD

Sequences and labels used below:
B1: Mcm4 (protein, UniProt P30665 1-933)
chain: MSQQSSSPTKEDNNSSSPVVPNPDSVPPQLSSPALFYSSSSSQGDIYGRNNSQNLSQGEGNIRAAIGSSPLNFPSSSQRQNSDVFQSQGRQGRIRSSASASGRSRYHSDLRSDRALPTSSSSLGRNGQNRVHMRRNDIHTSDLSSPRRIVDFDTRSGVNTLDTSSSSAPPSEASEPLRIIWGTNVSIQECTTNFRNFLMSFKYKFRKILDEREEFINNTTDEELYYIKQLNEMRELGTSNLNLDARNLLAYKQTEDLYHQLLNYPQEVISIMDQTIKDCMVSLIVDNNLDYDLDEIETKFYKVRPYNVGSCKGMRELNPNDIDKLINLKGLVLRSTPVIPDMKVAFFKCNVCDHTMAVEIDRGVIQEPARCERIDCNEPNSMSLIHNRCSFADKQVIKLQETPDFVPDGQTPHSISLCVYDELVDSCRAGDRIEVTGTFRSIPIRANSRQRVLKSLYKTYVDVVHVKKVSDKRLDVDTSTIEQELMQNKVDHNEVEEVRQITDQDLAKIREVAAREDLYSLLARSIAPSIYELEDVKKGILLQLFGGTNKTFTKGGRYRGDINILLCGDPSTSKSQILQYVHKITPRGVYTSGKGSSAVGLTAYITRDVDTKQLVLESGALVLSDGGVCCIDEFDKMSDSTRSVLHEVMEQQTISIAKAGIITTLNARSSILASANPIGSRYNPNLPVTENIDLPPPLLSRFDLVYLVLDKVDEKNDRELAKHLTNLYLEDKPEHISQDDVLPVEFLTMYISYAKEHIHPIITEAAKTELVRAYVGMRKMGDDSRSDEKRITATTRQLESMIRLAEAHAKMKLKNVVELEDVQEAVRLIRSAIKDYATDPKTGKIDMNLVQTGKSVIQRKLQEDLSREIMNVLKDQASDSMSFNELIKQINEHSQDRVESSDIQEALSRLQQEDKVIVLGEGVRRSVRLNNRV
B2: Snt1 (protein, UniProt P25357 1-1226)
chain: MGYPPPTRRLGDKKRYHYSNNPNRRHPSAVYSKNSFPKSSNNGFVSSPTADNSTNPSVTPSTASVPLPTAAPGSTFGIEAPRPSRYDPSSVSRPSSSSYSSTRKIGSRYNPDVERSSSTTSSTPESMNTSTITHTNTDIGNSRYSRKTMSRYNPQSTSSTNVTHFPSALSNAPPFYVANGSSRRPRSMDDYSPDVTNKLETNNVSSVNNNSPHSYYSRSNKWRSIGTPSRPPFDNHVGNMTTTSNTNSIHQREPFWKANSTTILKSTHSQSSPSLHTKKFHDANKLDKPEASVKVETPSKDETKAISYHDNNFPPRKSVSKPNAPLEPDNIKVGEEDALGKKEVHKSGREIAKEHPTPVKMKEHDELEARAKKVSKINIDGKQDEIWTTAKTVASAVEVSKESQKELTRSVERKESPEIRDYERAYDPKALKTDVTKLTVDNDNKSYEEPLEKVEGCIFPLPKAETRLWELKNQKRNKIISEQKYLLKKAIRNFSEYPFYAQNKLIHQQATGLILTKIISKIKKEEHLKKINLKHDYFDLQKKYEKECEILTKLSENLRKEEIENKRKEHELMEQKRREEGIETEKEKSLRHPSSSSSSRRRNRADFVDDAEMENVLLQIDPNYKHYQAAATIPPLILDPIRKHSYKFCDVNNLVTDKKLWASRILKDASDNFTDHEHSLFLEGYLIHPKKFGKISHYMGGLRSPEECVLHYYRTKKTVNYKQLLIDKNKKRKMSAAAKRRKRKERSNDEEVEVDESKEESTNTIEKEEKSENNAEENVQPVLVQGSEVKGDPLGTPEKVENMIEQRGEEFAGELENAERVNDLKRAHDEVGEESNKSSVIETNNGVQIMDPKGAVQNGYYPEETKELDFSLENALQRKKHKSAPEHKTSYWSVRESQLFPELLKEFGSQWSLISEKLGTKSTTMVRNYYQRNAARNGWKLLVDETDLKRDGTSSESVQQSQILIQPERPNINAYSNIPPQQRPALGYFVGQPTHGHNTSISSIDGSIRPFGPDFHRDTFSKISAPLTTLPPPRLPSIQFPRSEMAEPTVTDLRNRPLDHIDTLADAASSVTNNQNFSNERNAIDIGRKSTTISNLLNNSDRSMKSSFQSASRHEAQLEDTPSMNNIVVQEIKPNITTPRSSSISALLNPVNGNGQSNPDGRPLLPFQHAISQGTPTFPLPAPRTSPISRAPPKFNFSNDPLAALAAVASAPDAMSSFLSKKENNN
B3: Sif2 (protein, UniProt P38262 1-535)
chain: MSITSEELNYLIWRYCQEMGHEVSALALQDETRVLEFDEKYKEHIPLGTLVNLVQRGILYTESELMVDSKGDISALNEHHLSEDFNLVQALQIDKEKFPEISSEGRFTLETNSESNKAGEDGASTVERETQEDDTNSIDSSDDLDGFVKILKEIVKLDNIVSSTWNPLDESILAYGEKNSVARLARIVETDQEGKKYWKLTIIAELRHPFALSASSGKTTNQVTCLAWSHDGNSIVTGVENGELRLWNKTGALLNVLNFHRAPIVSVKWNKDGTHIISMDVENVTILWNVISGTVMQHFELKETGGSSINAENHSGDGSLGVDVEWVDDDKFVIPGPKGAIFVYQITEKTPTGKLIGHHGPISVLEFNDTNKLLLSASDDGTLRIWHGGNGNSQNCFYGHSQSIVSASWVGDDKVISCSMDGSVRLWSLKQNTLLALSIVDGVPIFAGRISQDGQKYAVAFMDGQVNVYDLKKLNSKSRSLYGNRDGILNPLPIPLYASYQSSQDNDYIFDLSWNCAGNKISVAYSLQEGSVVAI
B4: Tof1 (protein, UniProt P53840 1-1238)
chain: MSADLQQGTTNAADFSLTVLRARIALLATAIGGPDYTSQIDPPPYKLGDDCLACLKDLKRWFKLVDDQQKRWDVAMAVAEYRILTDDLLPILIDWENKCSLAAKLAKNNPDHEEFRNKAYYDKIALNCLQLLVLMTWPLIVTEQSSSNQITLYGELKKHQLVYKKTILSMESGKVLRAAIRLALDVIKIDRLSRTPRDNMVLKLVLNFFRNVIAIEPGEFTINTKKSMPKKGITSIDTLPPNVSMDDISLNTVISSFHKNKVFGFLLTLTSSLSKEFDQDFINIPLLEIMFYFTKDVNQELLFPRQFETGTHSKVVNKNESSSANNIVTSAGFELSKLLQKEHQMRKNVIKHTSARHSRFGGLLSIQTPDKTRLTVSGSQALVDEKIALQKLDDSKKWNKRIIKKHQSVAAEGLPNSLLNSQTGKAIFFTESNGKHFKEFINNFIDSGFNILLHSVTNYFTTEQDRMVTLEQVEYLLFFAWFVKYQLLRSKIDNSADIKQVSEALKEVTFILVSSLLRSAYDLKNWTVTHAGMIAFNELLNLVSRTKAAQEEDSTDIEFIVSRLFSDERIQLLSNLPKIGSKYSLQFMKSCIELTHSVLKVLEQYSDDKTLVIEGKSRRQKKFNISEGDITKLIEEENVDRDEALDILTSSLRSIEVNFQKVQANYMTEPVIETYINFLERFRELEDDSIKKVFSFFHRVFVQAKEQALLFRFDLIILLREMLSPDGLDRMSRSRKYVSQFSDYFLARLKKRLKKSPAWFVGLLFPPLHNSEVGFYQRYGEYNVLNNESMYAAPASQFKPIPDEEALPPSILLDMKYGVLVSTLLDDGKTELLDQLLKHITHTLDIFKSWLTVNVNAGKETVNPPNEYFTLTGVLNNDPIFKDKDYRALLLLIGYSIPRKINEPCFLPGTVEVSDLTVSCELVKKYLSTPFETPNGLPSSSYLLRVRSEKDSFSHNEQDGWEGDDDYDYNDPYIVPDDQILSKSDAAYFKDLDNNASDKLKGTKFSKGIARSKKKDKRKRRKGEAKTNLPMFGDQDDERPQTVRERHGVFSKEFISDSEDDEDLMNPIFFENETYMRWLLDKNNGQLTEDRYIQFAKFAAERMNNGGVVTGDYTSLFGGSIPSIESIRATESSSFAPDKSLISLASHVASEMSIFDVNNNNNNQLSDDDVNSESRNSLGSSQPSNSQNMFQSEVYSRKESTKRSLEASAADESDEDEEAIRLFGKKSRVVLSQGDSDD
B5: Hos4 (protein, UniProt P40480 1-1083)
chain: MNETTTKQPLKKRSLSSYLSNVSTRREELEKISKQETSEEEDTAGKHEQRETLSEEVSDKFPENVASFRSQTTSVHQATQNNLNAKESEDLAHKNDASSHEGEVNGDSRPDDVPETNEKISQAIRAKISSSSSSPNVRNVDIQNHQPFSRDQLRAMLKEPKRKTVDDFIEEEGLGAVEEEDLSDEVLEKNTTEPENVEKDIEYSDSDKDTDDVGSDDPTAPNSPIKLGRRKLVRGDQLDATTSSMFNNESDSELSDIDDSKNIALSSSLFRGGSSPVKETNNNLSNMNSSPAQNPKRGSVSRSNDSNKSSHIAVSKRPKQKKGIYRDSGGRTRLQIACDKGKYDVVKKMIEEGGYDINDQDNAGNTALHEAALQGHIEIVELLIENGADVNIKSIEMFGDTPLIDASANGHLDVVKYLLKNGADPTIRNAKGLTAFESVDDESEFDDEEDQKILREIKKRLSIAAKKWTNRAGIHNDKSKNGNNAHTIDQPPFDNTTKAKNEKAADSPSMASNIDEKAPEEEFYWTDVTSRAGKEKLFKASKEGHLPYVGTYVENGGKIDLRSFFESVKCGHEDITSIFLAFGFPVNQTSRDNKTSALMVAVGRGHLGTVKLLLEAGADPTKRDKKGRTALYYAKNSIMGITNSEEIQLIENAINNYLKKHSEDNNDDDDDDDNNNETYKHEKKREKTQSPILASRRSATPRIEDEEDDTRMLNLADDDFNNDRDVKESTTSDSRKRLDDNENVGTQYSLDWKKRKTNALQDEEKLKSISPLSMEPHSPKKAKSVEISKIHEETAAEREARLKEEEEYRKKRLEKKRKKEQELLQKLAEDEKKRIEEQEKQKVLEMERLEKATLEKARKMEREKEMEEISYRRAVRDLYPLGLKIINFNDKLDYKRFLPLYYFVDEKNDKFVLDLQVMILLKDIDLLSKDNQPTSEKIPVDPSHLTPLWNMLKFIFLYGGSYDDKKNNMENKRYVVNFDGVDLDTKIGYELLEYKKFVSLPMAWIKWDNVVIENHAKRKEIEGNMIQISINEFARWRNDKLNKAQQPTRKQRSLKIPRELPVKFQHRMSISSVLQQTSKEPFW
B6: Set3 (protein, UniProt P36124 1-751)
chain: MSVPNSKEQSLLDDASTLLLFSKGKKRAEEASKIGSKTDTIEHDESHEREKKGAIEMAAAALATASTVSLPLKKATEQSAAEAATSTAAKEETENQPQKQPQWPVPDSYIVDPDAGIITCICDLNDDDGFTIQCDHCNRWQHAICYGIKDIGMAPDDYLCNSCDPREVDINLARKIQQERINVKTVEPSSSNNSASNKNNGRDRASSTTISDVGDSFSTDQDNTNHRDKRRKRNPSNNSIDSKNESASVNSSDGLTSMPKKKEHFLSAKDAYGAIYLPLKDNVFKSDLIEPFLNKHMDDNWVIQYPHKTFKSVSIEVKPYADIAYSRTYPGFTKLGVYLKKDCIKGDFIQEILGELDFYKNYLTDPRNHYRIWGTAKRRVIFHSHWPIYIDARLSGNSTRYLRRSCQPNVELVTIKLQDTDNRNDKSSGRKSSRIKFVLRALRDISEDEELYIKWQWDSKHPILKLIKGMTIDSLDDLERYGLINSVETILSNGECGCGNNSKDCYLLKVKRYAQSLYKSVKSRGKMNNRYKLNEILNQYNCKKRREPPILHRLEEKAQNTIERAPILLNNFYRQKFLNRNNGPKIPQKNTIDSTNNPDDIAKPFKFALFAQHSSNISVPKKNETSEKPLIITKSTDYDESHITNIEELPIPVLLPINKTSRQTANDVEESQSKNEHKLSRTPSLSNFNKELSKEAQHSQAKTKEIMTEASVNSRRESTPESIMHLSDFSSSQLHSKKKLSFADYRKKLLK
B7: Csm3 (protein, UniProt Q04659 1-317)
chain: MDQDFDSLLLGFNDSDSVQKDPTVPNGLDGSVVDPTIADPTAITARKRRPQVKLTAEKLLSDKGLPYVLKNAHKRIRISSKKNSYDNLSNIIQFYQLWAHELFPKAKFKDFMKICQTVGKTDPVLREYRVSLFRDEMGMSFDVGTRETGQDLERQSPMVEEHVTSAEERPIVADSFAQDKRNVNNVDYDNDEDDDIYHLSYRNRRGRVLDERGNNETVLNNVVPPKEDLDALLKTFRVQGPVGLEENEKKLLLGWLDAHRKMEKGSMTEEDVQLIQSLEEWEMNDIEGQHTHYDLLPGGDEFGVDQDELDAMKEMGF

No constants are given. Whether binding was seen depends on the method and setting. In cells and extracts the contact can be indirect. These calls come from enrichment with a bait or labelling near it, and not all partners need be listed.

This assay addresses TAP-tagged Spt16 (Spt16-TAP), wild type (budding yeast (S. cerevisiae)) (UniProt P32558). The assay is described as follows: affinity purification with mass spectrometry; tandem affinity purification of wild-type Spt16 or Spt16-ΔN from yeast cells, SDS-PAGE, label-free quantitative mass spectrometry, n = 3.
Regarding B1, the binding entry is given as “binds”.

As to B2, the binding entry was “binds”. With B3, the binding result was “binds”. With B4, the binding result is “binds”. For B5, the binding result is reported as “binds”.

Regarding B6, the binding result is on record as “binds”. Turning to B7, the binding entry is “binds”.
